At least one structure is not confirmed: it was looked up by name or label, or the drawing left a doubt.
Legend:
[1] = system: MDA-MB-231 cells expressing pol-β specific shRNA; test: Temozolomide growth inhibition assay (MTS); type: cell-based, human; details: TMZ 48 hours, MDA-MB-231 cells that have lost pol-β expression
γ-H2AX = γ-H2AX immunoblotting; type: cell-based, mouse; details: MMS 1 hr or TMZ 2 hr exposure
Description: For γ-H2AX immunoblotting, protein was prepared as follows: briefly, 6×10^5 cells were seeded into 150 mm dishes and incubated for 24 hours at 10% CO2 at 37° C. Cells were treated with MMS and TMZ for 1 or 2 hr respectively, and whole cells were scraped from the plates in 1×PBS, washed, and immediately placed on dry ice. Thawed pellets were re-suspended in a 1:1 ratio of RIPA buffer and Laemmli buffer. Samples were boiled for 5 minutes and protein from an equal cell number was added to each well. Protein was separated by electrophoresis in a 12% SDS-polyacrylamide gel and electro-transferred to a […] nitrocellulose membrane (Trans-Blot, Bio-Rad). Membranes were blocked for 20 minutes in a 3% dried milk/TBS solution at room temperature and incubated with 0.5-1 μg/ml of anti-phospho-H2AX (Serine 139) (Upstate) prepared in TBS/3% dried milk and 0.1% Tween20 over night at 4° C. Membranes were washed twice with water and incubated with horseradish peroxidase (HRP)-conjugated secondary antibody (goat anti-rabbit HRP; Bio-Rad) at room temperature for 1.5 hour. Following a series of washes with water and TBS, HRP activity was detected using the Super Signal West Femto reagent (Pierce). Each membrane was re-probed with anti-PCNA to correct for differences in protein loading, and densitometry was used to quantitate with Quantity One 1-D analysis software (BioRad).

What does the source list for `Cn1nnc2c(C(N)=O)ncn2c1=O` [TMZ, temozolomide]?
sensitivity to TMZ relative to the parental cells [1]: significantly more sensitive; γ-H2AX expression in pol-β deficient cells as compared to Wt cells (γ-H2AX): clear increase

From patent US20100048682A1, “INHIBITING DNA POLYMERASE BETA TO ENHANCE EFFICACY OF ANTICANCER AGENTS” (UNIVERSITY OF PITTSBURGH - OF THE COMMONWEALTH SYSTEM OF …, priority 2005, published 2010)
